Data source: PubChem BioAssay AID652259 (Drosophila RNAi Screening Center, 2013)
Aim: 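Knock-downs that push a Wingless-driven reporter up or down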 (primary screen). Cells: Drosophila clone 8 imaginal disc epithelial cells. Reagents: long dsRNA against Drosophila genes. Treatment: pathway stimulated by co-transfected Wingless expression plasmid. Measurement: 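Dual luciferase reads per well after Wingless plasmid stimulation: reporter firefly light and Renilla control light; activity is firefly divided by Renilla, a ratio not deposited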. Direction: firefly reporter light: higher = more Wg reporter light, before normalisation; Renilla control light: higher = more transfected or surviving cells. Call rule: 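Strong candidates differ from their plate mean by at least two out of four per-plate statistical tests; weak candidates meet just one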. Meaning of the calls: active = candidate regulator (raises or lowers reporter); inactive = not a candidate.
The screen tested about 22,000 reagents; shown is an unselected part of those that have a named target and a result. In the full data, 233 (1.1%) were called active. 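Light values are raw, unnormalised plate reads; the ratio scores behind the reporter calls were not deposited.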 A plus sign joins genes that one reagent is predicted to hit. Not given: the amount of reagent, the time to read-out, the dose of the treatment.

Gene | DRSC id | firefly reporter light, replicate 1 | firefly reporter light, replicate 2 | Renilla control light, replicate 1 | Renilla control light, replicate 2 | outcome
CG42537 (GeneID 8674074) | DRSC12519 | 13988 | – | 4611 | – | inactive
CG7271 (GeneID 40021) | DRSC22561 | 4.74e5 | 5.95e5 | 1.84e5 | 1.76e5 | inactive
CG33679 (GeneID 3772494) | DRSC01436 | 21430 | – | 13155 | – | inactive
Atg7 (GeneID 37141) | DRSC05741 | 13936 | – | 8880 | – | inactive
Atg7 (GeneID 37141) | DRSC06937 | 7577 | – | 2320 | – | inactive
Ir75a (GeneID 39982) | DRSC10188 | 7203 | – | 2724 | – | inactive
CG42500 (GeneID 50032) | DRSC14822 | 17376 | – | 2748 | – | inactive
cype (GeneID 46040) | DRSC02356 | 2556 | 11920 | 829 | 3061 | inactive
MCTS1 (GeneID 31536) | DRSC18393 | 3274 | 10428 | 1319 | 3385 | inactive
CG32576 (GeneID 318095) | DRSC19136 | 3229 | – | 1340 | – | inactive
CG15109 (GeneID 37195) | DRSC06536 | 8000 | – | 2474 | – | inactive
CG32147 (GeneID 251690) | DRSC09346 | 2641 | – | 1063 | – | inactive
sick (GeneID 35277) | DRSC02090 | 3504 | 6698 | 578 | 2512 | inactive
sick (GeneID 35277) | DRSC02300 | 2903 | 5509 | 597 | 2585 | inactive
sick (GeneID 35277) | DRSC02301 | 3153 | 5360 | 499 | 2841 | inactive
sick (GeneID 35277) | DRSC02302 | 2121 | 10249 | 411 | 3440 | inactive
sick (GeneID 35277) | DRSC02303 | 2512 | 3987 | 393 | 2439 | inactive
sick (GeneID 35277) | DRSC02306 | 2461 | 7772 | 425 | 4042 | inactive
Cep290 (GeneID 38099) | DRSC08359 | 6764 | – | 2981 | – | inactive
CG13962 (GeneID 35270) | DRSC02304 | 3173 | 8233 | 643 | 2901 | inactive
Cyp4ad1 (GeneID 35821) | DRSC07369 | 8978 | – | 3648 | – | inactive
CG43091 (GeneID 12798514) | DRSC13571 | 3040 | – | 1140 | – | inactive
witty (GeneID 34145) | DRSC02378 | 3136 | 8981 | 1365 | 4244 | inactive
witty (GeneID 34145) | DRSC21650 | 5.19e5 | 5.84e5 | 3.03e5 | 2.65e5 | inactive
Vmat (GeneID 3346192) | DRSC06961 | 10496 | – | 2587 | – | inactive
Vmat (GeneID 3346192) | DRSC06962 | 7173 | – | 3160 | – | inactive
Vmat (GeneID 3346192) | DRSC22223 | 3.17e5 | 3.92e5 | 1.73e5 | 1.89e5 | inactive
CG11110 (GeneID 37337) | DRSC06037 | 3357 | – | 2242 | – | inactive
CG15233 (GeneID 35556) | DRSC04967 | 11433 | – | 3793 | – | inactive
Pomp (GeneID 35342) | DRSC03201 | 9808 | – | 3079 | – | inactive
CG13926 (GeneID 38192) | DRSC08395 | 4403 | – | 1732 | – | inactive
CG17328 (GeneID 34962) | DRSC01927 | 5360 | 8306 | 2185 | 3588 | inactive
CG17328 (GeneID 34962) | DRSC22448 | 9.12e5 | 8.82e5 | 4.95e5 | 4.88e5 | inactive
NimB2 (GeneID 260645) | DRSC22645 | 5.28e5 | 5.49e5 | 1.85e5 | 1.74e5 | inactive
fs(1)N (GeneID 45973) | DRSC18578 | 23240 | – | 19408 | – | inactive
CG2901 (GeneID 31338) | DRSC18239 | 13072 | – | 7858 | – | inactive
CG32591 (GeneID 318104) | DRSC19063 | 3219 | – | 1108 | – | inactive
CG9010 (GeneID 36904) | DRSC07320 | 12329 | – | 3120 | – | inactive
CG31681 (GeneID 318882) | DRSC00107 | 28450 | – | 14145 | – | inactive
CG8701 (GeneID 35812) | DRSC07237 | 6288 | – | 2592 | – | inactive
gcm2 (GeneID 34280) | DRSC03538 | 2832 | 6900 | 779 | 2934 | inactive
CG7222 (GeneID 36138) | DRSC07019 | 15464 | – | 4324 | – | inactive
Cpsf160 (GeneID 44250) | DRSC05968 | 10219 | – | 2827 | – | inactive
kdn (GeneID 31579) | DRSC18328 | 18359 | – | 10203 | – | inactive
Pde8 (GeneID 37741) | DRSC04503 | 13600 | – | 3884 | – | inactive
CG32655 (GeneID 318143) | DRSC18925 | 1898 | – | 1008 | – | inactive
Ir20a (GeneID 33126) | DRSC20506 | 14261 | – | 9138 | – | inactive
PIP4K (GeneID 3885565) | DRSC17213 | 19910 | – | 15723 | – | inactive
5-HT1A (GeneID 37196) | DRSC05030 | 5110 | – | 1963 | – | inactive
grk (GeneID 34171) | DRSC03540 | 11321 | – | 5768 | – | inactive
dgt6 (GeneID 43441) | DRSC14424 | 2246 | 8428 | 827 | 2828 | inactive
CG32708 (GeneID 318161) | DRSC18411 | 33238 | – | 17922 | – | inactive
CG16789 (GeneID 41154) | DRSC15155 | 9992 | – | 1748 | – | inactive
l(2)10685 (GeneID 33293) | DRSC00665 | 10178 | – | 4403 | – | inactive
fiz (GeneID 32420) | DRSC20188 | 2713 | 11059 | 1117 | 4613 | inactive
Evi5 (GeneID 32088) | DRSC19421 | 16896 | – | 7608 | – | inactive
CG11977 (GeneID 41076) | DRSC14454 | 9700 | – | 2794 | – | inactive
CG31407 (GeneID 318716) | DRSC12761 | 2567 | – | 1288 | – | inactive
CG10505 (GeneID 37428) | DRSC04075 | 3211 | 9924 | 738 | 3088 | inactive
ImpE3 (GeneID 48239) | DRSC16716 | 12121 | – | 3480 | – | inactive
CG15141 (GeneID 35044) | DRSC02441 | 10889 | – | 3920 | – | inactive
CG15141 (GeneID 35044) | DRSC02442 | 3140 | 7776 | 1248 | 3744 | inactive
CG13742 + CNT1 | DRSC06413 | 3592 | 5699 | 872 | 2205 | inactive
Gclm (GeneID 248194) | DRSC15677 | 2336 | 5292 | 1068 | 1623 | inactive
CG15919 (GeneID 50216) | DRSC06594 | 4592 | – | 963 | – | inactive
Srp68 (GeneID 39028) | DRSC10475 | 2867 | – | 1149 | – | inactive
puml (GeneID 35733) | DRSC06793 | 2106 | 7347 | 260 | 3213 | inactive
BBS5 (GeneID 40600) | DRSC12168 | 12809 | – | 4652 | – | inactive
Nca (GeneID 40186) | DRSC11233 | 15059 | – | 5584 | – | inactive
CG12065 (GeneID 31798) | DRSC17798 | 2784 | 3570 | 749 | 1568 | inactive
CG12065 (GeneID 31798) | DRSC17799 | 22358 | – | 10827 | – | inactive
Pak (GeneID 44039) | DRSC12602 | 5146 | – | 1616 | – | inactive
Nse1 (GeneID 33938) | DRSC02147 | 13024 | – | 4429 | – | inactive

A stretch taken from the entries so far, for reference:
Gene | DRSC id | firefly reporter light, replicate 1 | firefly reporter light, replicate 2 | Renilla control light, replicate 1 | Renilla control light, replicate 2 | outcome
CG32591 (GeneID 318104) | DRSC19063 | 3219 | – | 1108 | – | inactive
CG9010 (GeneID 36904) | DRSC07320 | 12329 | – | 3120 | – | inactive
CG31681 (GeneID 318882) | DRSC00107 | 28450 | – | 14145 | – | inactive
CG8701 (GeneID 35812) | DRSC07237 | 6288 | – | 2592 | – | inactive
gcm2 (GeneID 34280) | DRSC03538 | 2832 | 6900 | 779 | 2934 | inactive
CG7222 (GeneID 36138) | DRSC07019 | 15464 | – | 4324 | – | inactive
Cpsf160 (GeneID 44250) | DRSC05968 | 10219 | – | 2827 | – | inactive
kdn (GeneID 31579) | DRSC18328 | 18359 | – | 10203 | – | inactive
Pde8 (GeneID 37741) | DRSC04503 | 13600 | – | 3884 | – | inactive
CG32655 (GeneID 318143) | DRSC18925 | 1898 | – | 1008 | – | inactive
Ir20a (GeneID 33126) | DRSC20506 | 14261 | – | 9138 | – | inactive
